# Literature values as cited in US20160051468A1, “Compositions for Prevention and/or Treatment of Gastrointestinal Imbalances in Digestive Disorders” (BRIGHT DRINKS INC., priority 2013, published 2016).
# At least one compound was matched to its structure with a doubt left.
# Experiments:
# TNFα = conditions: inflamed and non-inflamed biopsies
# NF-κB [1] = conditions: mononuclear cells stimulated by LPS
# NF-κB [2] = conditions: human colon carcinoma cell line
# [3] = system: isolated human colonocytes
smiles,measurement,setting,value
CCCC(=O)O [butyrate],TNFα levels,TNFα,decreased significantly
same,NF-κB activity,NF-κB [1],NF-κB inhibition
same,"suppression of NF-κB reporter activity, relative potency",NF-κB [2],equipotent
same,reduction of hydrogen peroxide-induced DNA damage,[3],protective
